## Results of single-concentration screens

Amino acid sequences for entries named in this document (tags omitted). Residues count along the entry.
UniProt A4I591, 1-473: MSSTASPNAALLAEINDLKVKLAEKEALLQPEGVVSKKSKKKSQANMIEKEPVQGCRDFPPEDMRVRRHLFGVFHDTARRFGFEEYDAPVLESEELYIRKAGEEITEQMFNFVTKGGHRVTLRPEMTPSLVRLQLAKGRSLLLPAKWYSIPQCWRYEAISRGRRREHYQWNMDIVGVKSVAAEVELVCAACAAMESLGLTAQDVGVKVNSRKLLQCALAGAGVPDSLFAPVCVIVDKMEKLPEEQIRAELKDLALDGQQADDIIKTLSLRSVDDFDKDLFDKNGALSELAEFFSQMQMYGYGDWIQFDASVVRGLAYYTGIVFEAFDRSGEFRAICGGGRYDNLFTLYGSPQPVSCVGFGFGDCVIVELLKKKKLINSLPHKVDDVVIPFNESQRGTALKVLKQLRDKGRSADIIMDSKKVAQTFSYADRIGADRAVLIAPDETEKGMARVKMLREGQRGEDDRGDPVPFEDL

Data taken from ChEMBL document CHEMBL3988442, “University of Dundee, Small-Polar-MMV Screening Library” (2021).

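Enzyme assay of histidyl-tRNA synthetase; the read-out is not stated. Target: Histidine-tRNA ligase, Leishmania infantum (UniProt A4I591). Concentration: 30 µM. Higher reads as stronger inhibition (inferred: compounds with an IC50 in retests scored well above the rest). The assay is labelled LdHisRS but filed under L. infantum. About 69,000 compounds were tested under these conditions; 0.6% (about 410) showed 50% or more at least once.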

Values are the deposited “Percent Effect”, in %.
The record does not define 0% and 100%; most values in the screen are far below 50% and negative numbers occur (in some assays of this library far below -100).
This is an unselected part of the compounds tested.

| # | SMILES | Percent Effect |
|---|---|---|
| 1 | `CCc1ccc(-n2nnc(C(=O)O)c2-c2ccncc2)cc1` | 13.16 |
| 2 | `NC1(c2nc(-c3cccs3)cc(=O)[nH]2)CCCC1` | -3.333 |
| 3 | `CN(C)C(=O)c1cccc(NC(=O)N(CCO)Cc2ccsc2)c1` | 24.04 |
| 4 | `CSCc1noc(CNC(=O)C2CCN(C(C)C)CC2)n1` | 18.37 |
| 5 | `CCCS(=O)(=O)N1CCN(CCCO)CC1` | 7.08 |
| 6 | `COC(=O)CC(C)(C)CC(=O)N1CCC(C(F)(F)F)CC1` | 7.895 |
| 7 | `CN(C)C(CNC(=O)c1nc(N2CCOCC2)ncc1Cl)c1ccco1` (centres unmarked) | 5.833 |
| 8 | `CC(=O)N1CCC(CSCc2ccco2)CC1` | 5.983 |
| 9 | `CC(C(=O)N1CCCC1)N1CCCN(C(=O)Oc2ccccc2)CC1` (centres unmarked) | 3.774 |
| 10 | `O=C(NC1CC(=O)N(C2CC2)C1)c1cccs1` (centres unmarked) | -4.274 |
| 11 | `O=C1NCCC12CN(CC1CC1)CC21CCNCC1` (centres unmarked) | 19.42 |
| 12 | `CC(CO)NC(=O)Nc1ccc(COC2CCCC2)cc1` (centres unmarked) | 16.42 |
| 13 | `CC1COCCN1C(=O)Cc1cc(Cl)c2c(c1)OCCO2` (centres unmarked) | 3.333 |
| 14 | `CC(C)c1cc2c(O)nc(CSCC(=O)O)nc2s1` | 13.59 |
| 15 | `CC(C)n1c(=O)c2ccccc2n(CCCN(C)C)c1=O` | 21.74 |
| 16 | `CCCn1nc(C)c(C(=O)N[C@@H]2CC[C@@H](N3CCCC3)[C@@H]2O)c1C` | 17.39 |
| 17 | `CN(C)S(=O)(=O)N1CCC(Oc2ccccn2)CC1` | 10.68 |
| 18 | `CC(C)[C@]1(O)CN(C(=O)COCC(N)=O)C[C@H]1C` | -7.447 |
| 19 | `CN(C)CCN1C[C@@H]2CN(S(=O)(=O)c3cccs3)C[C@@H]2C1=O` | 5.825 |
| 20 | `CC(=O)c1ccc(OCC(=O)NS(=O)(=O)c2cccnc2)cc1` | -20.18 |
| 21 | `CC(C)(C)n1ncc2c1NC(=O)CC2c1cccc(O)c1` (centres unmarked) | 23.38 |
| 22 | `CC(=O)N1CCOC(Cc2cccc(C(F)(F)F)c2)C1` (centres unmarked) | 1.754 |
| 23 | `COc1c(CNCCc2c[nH]c3ccccc23)c(C)nn1C` | -1.064 |
| 24 | `Cc1nc[nH]c1-c1c(-c2ccccc2)ncn1C1CCNC1` (centres unmarked) | 20.51 |
| 25 | `O=C(CNC(=O)Nc1cccc(-c2nccs2)c1)NCCO` | 5.479 |
| 26 | `CN1CCOC(CNCc2coc(-c3cccs3)n2)C1` (centres unmarked) | -1.124 |
| 27 | `Cc1ccc(N2CCC3(CC2)CC(OCC(C)C)C3)nn1` | 20 |
| 28 | `CC(C)c1nc(CC(=O)Nc2nc(CN3CCCCCC3)cs2)cs1` | 53.33 |
| 29 | `O=C(c1cc(C2CCCN(Cc3ccccn3)C2)no1)N1CCCC1` (centres unmarked) | 4.828 |
| 30 | `CN1CCN([C@@H]2CN(C(=O)CCOc3ccccc3)C[C@H]2O)CC1` | 0 |
| 31 | `CCn1ccnc1CN1CCN(C(C)C(=O)NC2CCCC2)CC1` (centres unmarked) | 11.01 |
| 32 | `Cc1nnc(N2C[C@@H](OCC3CCCC3)[C@H]3OCCC[C@H]32)s1` | 27.03 |
| 33 | `COc1cccc(-c2n[nH]cc2-c2nc(CC3CCN(C)CC3)no2)c1` | 15.5 |
| 34 | `O=C(N1CCCC1)N1Cc2nccn2CC(COc2cccnc2)C1` (centres unmarked) | 8.333 |
| 35 | `CC(C)CN1CCc2[nH]cnc2C12CCN(C(=O)c1cnn(C)c1)CC2` | 20.97 |
| 36 | `COCc1nc(CNc2cccc(-c3ncon3)c2)cs1` | 11.11 |
| 37 | `COc1ccc(C2CC(=O)NCc3nc(N(C)C)sc32)c(O)c1` (centres unmarked) | 10.75 |
| 38 | `Cc1n[nH]c(C)c1CNC(=O)c1cn(CCC2CCCCN2)nn1` (centres unmarked) | 6.667 |
| 39 | `CC(C)c1cc(N2CCC[C@H](N)C2)n2nccc2n1` | 16.67 |
| 40 | `O=C1CC(c2ccccc2F)c2c(n(C3CCCC3)[nH]c2=O)N1` (centres unmarked) | 1.266 |
| 41 | `Cc1nsc(C(=O)N2CCc3ccccc3C2)n1` | 16.5 |
| 42 | `Cc1nc(NC(=O)NCc2cccnc2NCCN(C)C)sc1C` | 4.202 |
| 43 | `CN1C(=O)CC(c2cnn(C)c2)C12CCN(C(=O)c1cccn1C)CC2` (centres unmarked) | 11.93 |
| 44 | `CC(=O)Nn1ccc2c(nnc3c(-c4ccccc4)cnn32)c1=O` | -3.614 |
| 45 | `COCCN1CCCC2(CCN(c3nccnc3N(C)C)C2)C1=O` (centres unmarked) | 4 |
| 46 | `CCCn1cc(NC(=O)c2cccc3cccnc23)ccc1=O` | 75.9 |
| 47 | `CC(=O)N1CC2(CCCCN2Cc2ccc(Cl)cc2)Cc2ccccc21` (centres unmarked) | 16.55 |
| 48 | `O=C(c1ccsc1)N1CCOC2(CCN(Cc3cccnc3)CC2)C1` | 3.774 |
| 49 | `O=C(N[C@@H]1CC[C@@H](n2ccnc2)[C@@H]1O)c1cc2c(s1)CCC2` | 15.62 |
| 50 | `Cc1ncsc1CCNC(=O)Cn1nc(C)n(Cc2ccccc2)c1=O` | 12.86 |
| 51 | `CCS(=O)(=O)N1Cc2nccn2CC(Cn2nc(C)nc2C)C1` (centres unmarked) | -41.51 |
| 52 | `CCC(CN1CCCC1)NC(=O)Cc1c(C)[nH]c2cc(C)cc(C)c12` (centres unmarked) | 7.586 |
| 53 | `Cc1nc(CN2CCCC(N(C)CC3(O)CCCCC3)C2)no1` (centres unmarked) | 21.82 |
| 54 | `COc1ccc(CCN2CCC(N3CCN(C)C3=O)CC2)cc1` | 10.96 |
| 55 | `CCN1CCN(c2ncc(-c3cc(C)no3)c(-c3ccc(C)s3)n2)CC1` | -8.333 |
| 56 | `CCN1CCn2nc(CCC(=O)N3CCCC3)cc2C1` | 9.524 |
| 57 | `Cc1nc(C)n(CC2CCCN(CC(=O)N3CCCC3)C2)n1` (centres unmarked) | 20.35 |
| 58 | `Cc1cccc(C2(O)CCN(Cc3ccccc3N3CCCC3)CC2)c1` | 4.255 |